According to patent publication US20110282028A1, “METHOD FOR IDENTIFYING INHIBITORS OF LIPOTEICHOIC ACID SYNTHASE” (UNIVERSITY OF NEWCASTLE UPON TYNE, priority 2008, published 2011):
For at least one compound, name, drawing or mass did not settle the structure.

System: wild-type cells
Test: Growth of wild-type cells in presence of antibiotic
Assay type: cell-based, B. subtilis
Conditions: 0.5 μg/ml kanamycin

Question: For `NC[C@H]1O[C@H](O[C@H]2[C@H](O)[C@@H](O[C@H]3O[C@H](CO)[C@@H](O)[C@H](N)[C@H]3O)[C@H](N)C[C@@H]2N)[C@H](O)[C@@H](O)[C@@H]1O` [kanamycin], which “growth of wild-type cells” value is on record?
Answer: The value was “no discernible effect”.
